The values below come from patent publication US8952181B2, “Organic semiconductive material precursor containing dithienobenzodithiophene derivative, ink, insulating member, charge-transporting member, and organic electronic device” (Ricoh Company, Ltd., priority 2010, dated 2015).

This data set is described as follows: Organic thin film transistor (FET) electric properties. The conditions noted are these: for operation of field-effect transistor without heat treatment: heat treatment at 260° C. for 30 seconds not performed. The method, then:
A field-effect transistor having the structure shown in FIG. 1D was produced using Example Compound 1 synthesized in Example 1, in the following manner.
A N-doped silicon substrate having a 300 nm-thick thermal oxide film was immersed in concentrated sulfuric acid for 24 hours, followed by washing.
On this substrate, CT4112 (manufactured by KYOCERA Chemical Corporation) was spin coated, cured at approximately 200° C., to thereby produce a polyimide film having a thickness of 500 nm. Next, Example Compound 1 obtained in Example 1 was added in a chloroform solution to form the chloroform solution containing 0.5% by mass of Example Compound 1, followed by spin coating the solution, to thereby form a thin film of Example Compound 1. Next, the thin film of Example Compound 1 was heated on a hot plate at 260° C. for 30 seconds, so as to convert the thin film of Example Compound 1 to that of Example Compound 1-2.
Gold was then vacuum-deposited (back pressure: up to 10^−4 Pa, deposition rate: 1 Å/s to 2 Å/s, film thickness: 50 nm) on the organic semiconductive layer using a shadow mask, to thereby form a source electrode and a drain electrode (channel length: 50 μm, channel width: 2 mm).
The FET (field-effect transistor) element obtained in this manner was evaluated with respect to its electric properties under the atmospheric air by means of a semiconductor parameter analyzer 4156C manufactured by Agilent Technologies.
Note that, the following formula was used for calculating the field-effect mobility of the organic thin film transistor. Ids=μCinW(Vg−Vth)^2/2L
In the formula above, Cin represents a capacitance per unit area of the gate insulating film, W represents a channel width, L represents a cannel length, Vg represents a gate voltage, Ids represents a source-drain current, μ represents mobility, and Vth represents a gate threshold voltage at which a channel starts to be formed.
Field-effect transistors were produced in the same manner as in Example 8, except that the organic semiconductive material precursor and the conversion temperature of the organic semiconductive material precursor were changed respectively to those shown in Table 1, and that silver was used for the source electrode and the drain electrode.

[1] abbreviates: silver source and drain electrodes, conversion temperature of precursor as in Table 1 (195-250° C.).
Where [2] appears, read: precursor film heated at 260° C. for 30 seconds, gold source and drain electrodes, atmospheric air.
The mark [3] stands for this setting: as Example 8 but silver source and drain electrodes.

Take `O=C(CCC(F)(F)F)OC(Cc1ccccc1)c1cc2sc3cc4c(cc3c2s1)sc1cc(C(Cc2ccccc2)OC(=O)CCC(F)(F)F)sc14` (centres unmarked) [Example Compound 15]: under setting [1], the Field-effect mobility turned out to be 0.6 cm^2/Vs and the On-off ratio is reported as 10^4.

On to `CC(C)(C)C(=O)OC(Cc1ccccc1)c1cc2sc3cc4c(cc3c2s1)sc1cc(C(Cc2ccccc2)OC(=O)C(C)(C)C)sc14` (centres unmarked) [Example Compound 1], for which the “operation of field-effect transistor without heat treatment” value is given as “not operated”. For the same compound, the transistor type result (precursor film heated at 260° C. for 30 seconds, gold electrodes, atmospheric air) is on record as “p-type”. In addition, under setting [2], the Field-effect mobility is listed as 0.5 cm^2/Vs and the threshold voltage was −0.2 V.

Regarding `COC(Cc1ccccc1)c1cc2sc3cc4c(cc3c2s1)sc1cc(C(Cc2ccccc2)OC)sc14` (centres unmarked) [Example Compound 12], under setting [1], the Field-effect mobility amounted to 1.6 cm^2/Vs and the On-off ratio is recorded as 10^6.

As for `CCCCCC(=O)OC(Cc1ccccc1)c1cc2sc3cc4c(cc3c2s1)sc1cc(C(Cc2ccccc2)OC(=O)CCCCC)sc14` (centres unmarked) [Example Compound 2], the “operation of field-effect transistor without heat treatment” value is given as “not operated”. Under setting [3], this compound gave a Field-effect mobility of 0.91 cm^2/Vs and a threshold voltage of −6.6 V. Under setting [2], the Field-effect mobility came to 0.33 cm^2/Vs and the threshold voltage was −0.6 V.

For `O=C(CCl)OC(Cc1ccccc1)c1cc2sc3cc4c(cc3c2s1)sc1cc(C(Cc2ccccc2)OC(=O)CCl)sc14` (centres unmarked) [Example Compound 14], under setting [1], the Field-effect mobility came out at 0.2 cm^2/Vs and the On-off ratio is listed as 10^4.

As to `CCCCCOC(=O)OC(Cc1ccccc1)c1cc2sc3cc4c(cc3c2s1)sc1cc(C(Cc2ccccc2)OC(=O)OCCCCC)sc14` (centres unmarked) [Example Compound 11], under setting [1], the Field-effect mobility is recorded as 0.7 cm^2/Vs and the On-off ratio was 10^5.
